Measured values: publication PMC11729874, “How J-chain ensures the assembly of immunoglobulin IgM pentamers” (The EMBO Journal, 2024)
No constants are given. Whether binding was seen depends on the method and setting. Some binding calls cover weakened binding; strength is not graded here. For some of these results: Sequences can lack the tags named with a protein.

T1: J-chain (JC), expressed in transfected cells (UniProt P01592)
T1 sequence: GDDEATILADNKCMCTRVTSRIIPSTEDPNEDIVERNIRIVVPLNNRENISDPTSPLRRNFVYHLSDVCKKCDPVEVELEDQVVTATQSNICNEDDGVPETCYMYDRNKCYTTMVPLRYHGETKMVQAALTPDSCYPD


Experiments:
[1] = molecular target: T1, J-chain (JC), expressed in transfected cells; assay: nonreducing SDS-PAGE and western blot of covalent assemblies; HeLa-ERp44KO transfected with JC variants, H-Cµ234tp and/or H-ERp44 variants; RIPA lysates with 10 mM NEM and supernatants; Halo ligands, anti-JC, anti-ERp44, anti-µ
[2] = molecular target: murine Joining Chain wild type, recombinant (mouse) (UniProt P01592); assay: SEC; analytical SE-HPLC, Superdex 200 Increase 10/300, PBS pH 7.4, 25 °C; 1 mg/mL Cµ4tp (DTT removed) and/or 0.5 mg/mL J chain (if not stated otherwise) incubated 24 h at room temperature; both purified

Binder	binding [1]	binding [2]
J-chain (JC), expressed in transfected cells (protein, UniProt P01592 22-159) GDDEATILADNKCMCTRVTSRIIPSTEDPNEDIVERNIRIVVPLNNRENISDPTSPLRRNFVYHLSDVCKKCDPVEVELEDQVVTATQSNICNEDDGVPETCYMYDRNKCYTTMVPLRYHGETKMVQAALTPDSCYPD	binds	
H-ERp44 C29S (protein, UniProt Q9BS26 30-406) EITSLDTENIDEILNNADVALVNFYADWSRFSQMLHPIFEEASDVIKEEFPNENQVVFARVDCDQHSDIAQRYRISKYPTLKLFRNGMMMKREYRGQRSVKALADYIRQQKSDPIQEIRDLAEITTLDRSKRNIIGYFEQKDSDNYRVFERVANILHDDCAFLSAFGDVSKPERYSGDNIIYKPPGHSAPDMVYLGAMTNFDVTYNWIQDKCVPLVREITFENGEELTEEGLPFLILFHMKEDTESLEIFQNEVARQLISEKGTINFLHADCDKFRHPLLHIQKTPADCPVIAIDSFRHMYVFGDFKDVLIPGKLKQFVFDLHSGKLHREFHHGPDPTDTAPGEQAQDVASSPPESSFQKLAPSEYRYTLLRDRDEL	no binding	

Continued, values first:

binding [1]	binding [2]	Binder
binds		wild-type Halo tagged ERp44 (H-ERp44) (protein, UniProt Q9BS26 30-406) EITSLDTENIDEILNNADVALVNFYADWCRFSQMLHPIFEEASDVIKEEFPNENQVVFARVDCDQHSDIAQRYRISKYPTLKLFRNGMMMKREYRGQRSVKALADYIRQQKSDPIQEIRDLAEITTLDRSKRNIIGYFEQKDSDNYRVFERVANILHDDCAFLSAFGDVSKPERYSGDNIIYKPPGHSAPDMVYLGAMTNFDVTYNWIQDKCVPLVREITFENGEELTEEGLPFLILFHMKEDTESLEIFQNEVARQLISEKGTINFLHADCDKFRHPLLHIQKTPADCPVIAIDSFRHMYVFGDFKDVLIPGKLKQFVFDLHSGKLHREFHHGPDPTDTAPGEQAQDVASSPPESSFQKLAPSEYRYTLLRDRDEL
	binds	murine Joining Chain wild type, recombinant (natural protein, mouse, methionine added at position 1; murine joining chain (J chain), G22-D159 of the precursor; Heterogeneous native and non-native disulfides; largely unstructured by CD; also called JC; J chain) MGDDEATILADNKCMCTRVTSRIIPSTEDPNEDIVERNIRIVVPLNNRENISDPTSPLRRNFVYHLSDVCKKCDPVEVELEDQVVTATQSNICNEDDGVPETCYMYDRNKCYTTMVPLRYHGETKMVQAALTPDSCYPD
